Earlier results in patent publication US7737126B2, “Purine derivative” (Glaxo Group Limited, priority 2004, dated 2010).
The name of at least one read-out is uncertain.

Tested on: plasma protein
Settings: literature data from ref. 16; cited from earlier work

SMILES	Literature % PPB [%]
CCCC1O[C@@H]2C[C@H]3[C@@H]4CCC5=CC(=O)C=C[C@]5(C)[C@H]4[C@@H](O)C[C@]3(C)[C@]2(C(=O)CO)O1 (stereo partly drawn) [Budesonide]	88
CNC(=C[N+](=O)[O-])NCCSCc1csc(CN(C)C)n1 [Nizatidine]	35
CN1C(C(=O)Nc2ccccn2)=C(O)c2ccccc2S1(=O)=O [Piroxicam]	94.5
